From doi:10.1101/2023.03.16.533063

Target: PfRNF1-GFP-BirA fusion protein (P. falciparum) (UniProt O97260)
Assay: proximity labelling

| Substance | binding |
| --- | --- |
| CAF1 (from UniProt C0H4T9) | binds |
| CAF40 (from UniProt Q8I427) | binds |
| CITH (from UniProt Q8IK89) | binds |
| DOZI (from UniProt O97285) | binds |
| NOT1 (from UniProt Q8IIW4) | binds |
| NOT1-G (from UniProt Q8ILS4) | binds |
| NOT2 (from UniProt Q8II77) | binds |
| PABP1 (from UniProt Q8I5H4) | binds |
| PfZNF4 (from UniProt Q8II18) | binds |
| Puf1 (from UniProt Q8I3S3) | binds |
| RPN2 (from UniProt Q8IKH3) | binds |
| RPN11 (from UniProt Q8ID28) | binds |
| RPT1 (from UniProt Q8IEK3) | binds |
| RPT3 (from UniProt Q8I1V1) | binds |
| RPT5 (from UniProt Q8II60) | binds |
| RPT6 (from UniProt Q8I4U5) | binds |
| zinc finger protein PF3D7_0522900 (from UniProt Q8I3N4 1-1552) | binds |
| zinc finger protein PF3D7_0602000 (from UniProt C6KSM0 1-1437) | binds |
| zinc finger protein PF3D7_0927200 (from UniProt C0H566 1-1627) | binds |
| zinc finger protein PF3D7_1205500 (from UniProt Q8I5Z0) | binds |
| zinc finger protein PF3D7_1220000 (from UniProt Q8I5L2) | binds |

No constants are given. Whether binding was seen depends on the method and setting. Binding seen in cells or lysates may run through a third protein. A yes stands for co-enrichment or nearness to the bait. Other partners may have been found.
